The list shows a part of the results.
Assays:
Assay in all cases: log2 fold change, soluble protein after heating vs DMSO (PISA); higher = thermal stabilisation; K562 lysate, 10 uM; active = over 0.2 and 3.5 SD of the protein, either way, in both replicates (recomputed)
[1] = compound: CS(=O)(=O)CCNCc1ccc(-c2ccc3ncnc(Nc4ccc(OCc5cccc(F)c5)c(Cl)c4)c3c2)o1 [lapatinib]
Procedure, shortened: (§1)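 Thermal stability, expressed as log-two fold change relative to solvent controls, is given from duplicates. Crude K562 extract in PBS pH 7.4 with 1 mM MgCl2, at 1 mg/mL protein, was treated with 10 μM compound for 30 min and heated in aliquots for 3 min across 48°C-58°C. After pooling, adjustment to 0.5% NP-40 at 4°C and centrifugation at 21,000xg for 90 min, supernatant protein was measured by TMTpro 16plex LC-MS/MS with channel sums equalised.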

The chains behind the UniProt entries cited, without tags or fusion partners. Where a name states a change or a piece, a line headed by the entry shows the natural chain unless it says otherwise.
UniProt Q9P2T1: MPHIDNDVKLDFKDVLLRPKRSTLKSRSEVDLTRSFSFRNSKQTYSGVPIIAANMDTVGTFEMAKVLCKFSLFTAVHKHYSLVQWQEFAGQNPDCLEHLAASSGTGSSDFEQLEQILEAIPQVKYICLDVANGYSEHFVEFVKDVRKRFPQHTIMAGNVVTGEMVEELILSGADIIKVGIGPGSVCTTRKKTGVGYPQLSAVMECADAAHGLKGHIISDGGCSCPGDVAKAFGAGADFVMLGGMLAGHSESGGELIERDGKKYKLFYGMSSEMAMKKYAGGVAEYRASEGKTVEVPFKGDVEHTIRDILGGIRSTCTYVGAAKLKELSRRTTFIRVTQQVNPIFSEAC
UniProt P21695: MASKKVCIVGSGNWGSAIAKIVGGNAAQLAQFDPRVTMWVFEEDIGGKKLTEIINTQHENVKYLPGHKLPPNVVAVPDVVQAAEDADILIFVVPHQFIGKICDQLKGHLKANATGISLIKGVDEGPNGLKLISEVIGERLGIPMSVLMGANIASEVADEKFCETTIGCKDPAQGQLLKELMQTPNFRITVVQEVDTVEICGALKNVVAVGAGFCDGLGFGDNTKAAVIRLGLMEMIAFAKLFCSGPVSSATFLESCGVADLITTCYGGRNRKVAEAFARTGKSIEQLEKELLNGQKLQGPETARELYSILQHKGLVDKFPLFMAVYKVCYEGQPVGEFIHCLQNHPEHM
UniProt Q9H4G4: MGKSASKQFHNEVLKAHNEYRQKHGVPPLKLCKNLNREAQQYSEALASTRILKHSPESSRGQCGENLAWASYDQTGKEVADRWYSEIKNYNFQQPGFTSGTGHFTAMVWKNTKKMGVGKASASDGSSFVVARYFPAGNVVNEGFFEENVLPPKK
UniProt Q9Y248: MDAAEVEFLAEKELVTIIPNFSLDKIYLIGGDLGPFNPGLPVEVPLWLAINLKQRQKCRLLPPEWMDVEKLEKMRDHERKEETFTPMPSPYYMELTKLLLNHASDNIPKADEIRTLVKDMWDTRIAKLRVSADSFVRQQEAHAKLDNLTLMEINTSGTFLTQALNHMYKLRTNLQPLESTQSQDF
UniProt P19440: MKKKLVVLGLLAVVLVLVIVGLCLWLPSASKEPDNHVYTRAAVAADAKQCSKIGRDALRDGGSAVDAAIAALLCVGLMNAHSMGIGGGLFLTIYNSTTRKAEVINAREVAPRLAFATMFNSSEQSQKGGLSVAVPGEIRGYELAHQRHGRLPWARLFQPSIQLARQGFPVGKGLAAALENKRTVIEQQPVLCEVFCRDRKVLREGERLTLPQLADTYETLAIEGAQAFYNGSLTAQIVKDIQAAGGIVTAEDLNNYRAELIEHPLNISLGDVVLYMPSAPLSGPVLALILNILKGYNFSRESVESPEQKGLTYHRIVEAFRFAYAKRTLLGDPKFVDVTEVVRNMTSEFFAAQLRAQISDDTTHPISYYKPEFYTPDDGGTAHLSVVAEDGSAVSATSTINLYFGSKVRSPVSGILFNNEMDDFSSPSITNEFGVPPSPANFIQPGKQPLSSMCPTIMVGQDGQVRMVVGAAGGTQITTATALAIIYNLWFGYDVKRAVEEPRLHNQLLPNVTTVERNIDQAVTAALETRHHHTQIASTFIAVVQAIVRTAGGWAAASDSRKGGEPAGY
UniProt Q8TF64: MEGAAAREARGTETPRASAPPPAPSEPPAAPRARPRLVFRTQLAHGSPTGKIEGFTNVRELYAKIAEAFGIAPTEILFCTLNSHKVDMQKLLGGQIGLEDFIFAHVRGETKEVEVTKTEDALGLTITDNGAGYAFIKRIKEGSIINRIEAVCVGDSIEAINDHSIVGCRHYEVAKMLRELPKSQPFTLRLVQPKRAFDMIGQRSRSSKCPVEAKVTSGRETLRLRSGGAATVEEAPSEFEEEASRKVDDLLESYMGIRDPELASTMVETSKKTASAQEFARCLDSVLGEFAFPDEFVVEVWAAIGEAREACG
UniProt O60234, whole entry, looked up: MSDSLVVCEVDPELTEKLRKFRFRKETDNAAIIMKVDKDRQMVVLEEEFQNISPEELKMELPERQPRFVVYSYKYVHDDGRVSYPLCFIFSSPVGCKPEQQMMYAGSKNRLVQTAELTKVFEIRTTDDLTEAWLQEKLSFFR
UniProt Q04760: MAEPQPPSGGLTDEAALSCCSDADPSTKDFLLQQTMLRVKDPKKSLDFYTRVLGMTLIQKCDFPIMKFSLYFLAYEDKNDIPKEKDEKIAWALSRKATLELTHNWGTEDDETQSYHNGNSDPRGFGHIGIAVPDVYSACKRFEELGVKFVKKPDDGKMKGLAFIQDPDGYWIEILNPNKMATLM

[2] = compound: CS(=O)(=O)N1CCN(Cc2cc3nc(-c4cccc5[nH]ncc45)nc(N4CCOCC4)c3s2)CC1 [pictilisib]
Procedure, shortened: as §1

[3] = compound: C[C@@H](Oc1cc(-c2cnn(C3CCNCC3)c2)cnc1N)c1c(Cl)ccc(F)c1Cl [crizotinib]
Procedure, shortened: as §1

[4] = compound: C[C@H](C1=CC=C(C=C1)C(=O)NC2=C3C=CNC3=NC=C2)N
Procedure, shortened: as §1

[5] = compound: C[C@H](Nc1ncnc2nc[nH]c12)c1cc2cccc(Cl)c2c(=O)n1-c1ccccc1 [duvelisib]
Procedure, shortened: as §1

[6] = compound: Cc1cc(Nc2cc(CN3CCOCC3)c3nc(C)c(Cc4ccc(Cl)cc4F)n3n2)n[nH]1 [gandotinib]
Procedure, shortened: as §1

[7] = compound: Cc1cc(Nc2cc(N3CCN(C)CC3)nc(Sc3ccc(NC(=O)C4CC4)cc3)n2)n[nH]1 [tozasertib]
Procedure, shortened: as §1

[8] = compound: Cc1ccc(-n2nc(C(C)(C)C)cc2NC(=O)Nc2ccc(OCCN3CCOCC3)c3ccccc23)cc1 [doramapimod]
Procedure, shortened: as §1

[9] = compound: Cc1ccc(NC(=O)c2ccc(CN3CC[C@H](N(C)C)C3)c(C(F)(F)F)c2)cc1Nc1nccc(-c2cncnc2)n1 [bafetinib]
Procedure, shortened: as §1

[10] = compound: Cc1cccc(CC(=O)N2CCc3c2ccc(-c2cn(C)c4ncnc(N)c24)c3F)n1
Procedure, shortened: as §1

[11] = compound: Cc1cn(-c2cc(NC(=O)c3ccc(C)c(Nc4nccc(-c5cccnc5)n4)c3)cc(C(F)(F)F)c2)cn1 [nilotinib]
Procedure, shortened: as §1

[12] = compound: Cc1nc(Nc2n[nH]c3c2CN(C(=O)N[C@H](CN(C)C)c2ccccc2)C3(C)C)c2sccc2n1
Procedure, shortened: as §1

[13] = compound: Cc1nc(Nc2ncc(C(=O)Nc3c(C)cccc3Cl)s2)cc(N2CCN(CCO)CC2)n1 [dasatinib]
Procedure, shortened: as §1

[14] = compound: Cc1ncc(-c2ccnc(Nc3ccc(S(C)(=O)=O)cc3)n2)n1C(C)C
Procedure, shortened: as §1

[15] = compound: Cn1cc(-c2ccc3c(c2)CCN3C(=O)Cc2cccc(C(F)(F)F)c2)c2c(N)ncnc21
Procedure, shortened: as §1

[16] = compound: Cn1cc(CNCC2CCN(c3ncc(C(=O)NO)cn3)CC2)c2ccccc21 [quisinostat]
Procedure, shortened: as §1

[17] = compound: Cn1cncc1[C@@](N)(c1ccc(Cl)cc1)c1ccc2c(c1)c(-c1cccc(Cl)c1)cc(=O)n2C [tipifarnib]
Procedure, shortened: as §1

[18] = compound: NC(=O)Nc1cc(-c2cccc(F)c2)sc1C(=O)N[C@H]1CCCNC1
Procedure, shortened: as §1

[19] = compound: NC(=O)c1cnc(N[C@@H]2CCCC[C@@H]2N)nc1Nc1cccc(-n2nccn2)c1
Procedure, shortened: as §1

[20] = compound: NC1(c2ccc(-c3nc4ccn5c(=O)[nH]nc5c4cc3-c3ccccc3)cc2)CCC1
Procedure, shortened: as §1

Target	log2 fold change [1]	log2 fold change [2]	log2 fold change [3]	log2 fold change [4]	log2 fold change [5]	log2 fold change [6]	log2 fold change [7]	log2 fold change [8]	log2 fold change [9]	log2 fold change [10]	log2 fold change [11]	log2 fold change [12]	log2 fold change [13]	log2 fold change [14]	log2 fold change [15]	log2 fold change [16]	log2 fold change [17]	log2 fold change [18]	log2 fold change [19]	log2 fold change [20]
GMPR2 isoform 2 (UniProt Q9P2T1)	inactive: -0.029	inactive: -0.016	inactive: 0.072	inactive: -0.03	inactive: 0.008	inactive: -0.003	inactive: -0.012	inactive: -0.009	inactive: 0.035	inactive: -0.026	inactive: 0.053	inactive: 0.005	inactive: 0.039	inactive: 0.025	inactive: 0.013	inactive: 0.046	inactive: -0.004	inactive: -0.024	inactive: 0.007	inactive: 0.012
GPD1 (UniProt P21695)	inactive: -0.152	inactive: -0.023	inactive: -0.202	inactive: 0.022	inactive: 0.124	inactive: 0.072	inactive: -0.059	inactive: 0.219	inactive: -0.187	inactive: 0.038	inactive: 0.205	inactive: -0.107	inactive: -0.157	inactive: -0.095	inactive: -0.083	inactive: -0.382	inactive: -0.049	inactive: 0.108	inactive: 0.066	inactive: -0.146
GLIPR2 (UniProt Q9H4G4)	inactive: 0.002	inactive: -0.027	inactive: 0.004	inactive: 0.033	inactive: -0.051	inactive: -0.021	inactive: -0.209	inactive: -0.032	inactive: 0.008	inactive: -0.03	inactive: -0.079	inactive: 0.183	inactive: -0.001	inactive: 0.051	inactive: 0.042	inactive: 0.026	inactive: -0.056	inactive: -0.018	inactive: 0.02	inactive: 0.057
GINS2 (UniProt Q9Y248)	inactive: 0.063	inactive: -0.011	inactive: -0.049	inactive: 0.004	inactive: -0.055	inactive: -0.035	inactive: 0.056	inactive: -0.025	inactive: -0.012	inactive: 0.056	inactive: -0.005	inactive: -0.025	inactive: 0.009	inactive: 0.004	inactive: 0.01	inactive: 0	inactive: 0.03	inactive: -0.022	inactive: -0.057	inactive: -0.019
GGT1 (UniProt P19440)	inactive: 0.028	inactive: -0.024	inactive: 0.118	inactive: -0.08	inactive: 0.02	inactive: 0.03	inactive: 0.034	inactive: 0.026	inactive: 0.025	inactive: 0.01	inactive: -0.016	inactive: 0.038	inactive: 0.072	inactive: -0.028	inactive: 0.023	inactive: 0.065	inactive: 0.111	inactive: 0.017	inactive: 0.007	inactive: 0.006
GIPC3 (UniProt Q8TF64)	inactive: 0.157	inactive: -0.055	inactive: -0.103	inactive: -0.033	inactive: 0.05	inactive: 0.124	inactive: -0.097	inactive: 0	inactive: -0.035	inactive: 0.083	inactive: 0.183	active: -0.602	inactive: -0.071	inactive: 0.097	inactive: -0.009	inactive: -0.309	inactive: -0.067	inactive: 0.134	inactive: 0.045	inactive: 0.016
GMFG (UniProt O60234)	inactive: 0.051	inactive: 0.048	inactive: 0.03	inactive: 0.065	inactive: 0.011	inactive: -0.023	inactive: -0.048	inactive: -0.003	inactive: -0.022	inactive: -0.084	inactive: 0.023	inactive: -0.051	inactive: 0.02	inactive: -0.089	inactive: 0.016	inactive: 0.046	inactive: 0.018	inactive: -0.017	inactive: -0.054	inactive: 0.053
GLO1 (UniProt Q04760)	inactive: 0.007	inactive: -0.007	inactive: -0.014	inactive: -0.066	inactive: 0.027	inactive: 0.032	inactive: 0.007	inactive: 0.04	inactive: 0.034	inactive: 0.002	inactive: 0.053	inactive: -0.037	inactive: -0.009	inactive: -0.017	inactive: -0.011	inactive: -0.021	inactive: -0.005	inactive: -0.025	inactive: 0.002	inactive: 0.005

— the supplement of paper PMC10849652
